Results: publication PMC10545682
Results are given in words; binding and its absence hold for the method and conditions named. In cells and extracts the contact can be indirect. Some entries that bind do so weakly or less than the wild type.

Chains of the proteins cited; added tags and fusions are not shown. Lines headed by an entry give the natural chain unless they say otherwise; changes in a name come on top. A line that says so, or that is headed by a name, gives the form on record, which may keep a tag or linker.
UniProt Q8WV24: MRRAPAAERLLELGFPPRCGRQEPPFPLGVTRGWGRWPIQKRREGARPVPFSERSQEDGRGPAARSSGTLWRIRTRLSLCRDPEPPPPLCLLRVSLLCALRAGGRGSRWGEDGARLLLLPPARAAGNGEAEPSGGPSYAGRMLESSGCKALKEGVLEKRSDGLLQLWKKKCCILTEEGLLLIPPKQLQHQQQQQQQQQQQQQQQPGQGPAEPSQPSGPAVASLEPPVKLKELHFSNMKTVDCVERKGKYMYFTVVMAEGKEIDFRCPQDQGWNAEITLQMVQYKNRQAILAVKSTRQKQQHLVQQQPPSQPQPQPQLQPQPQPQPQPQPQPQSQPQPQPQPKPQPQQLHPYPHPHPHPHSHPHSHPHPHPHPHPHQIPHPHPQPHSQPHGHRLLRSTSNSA
constitutively active FGFR2 mutant (C383R) (P21802-3, form named): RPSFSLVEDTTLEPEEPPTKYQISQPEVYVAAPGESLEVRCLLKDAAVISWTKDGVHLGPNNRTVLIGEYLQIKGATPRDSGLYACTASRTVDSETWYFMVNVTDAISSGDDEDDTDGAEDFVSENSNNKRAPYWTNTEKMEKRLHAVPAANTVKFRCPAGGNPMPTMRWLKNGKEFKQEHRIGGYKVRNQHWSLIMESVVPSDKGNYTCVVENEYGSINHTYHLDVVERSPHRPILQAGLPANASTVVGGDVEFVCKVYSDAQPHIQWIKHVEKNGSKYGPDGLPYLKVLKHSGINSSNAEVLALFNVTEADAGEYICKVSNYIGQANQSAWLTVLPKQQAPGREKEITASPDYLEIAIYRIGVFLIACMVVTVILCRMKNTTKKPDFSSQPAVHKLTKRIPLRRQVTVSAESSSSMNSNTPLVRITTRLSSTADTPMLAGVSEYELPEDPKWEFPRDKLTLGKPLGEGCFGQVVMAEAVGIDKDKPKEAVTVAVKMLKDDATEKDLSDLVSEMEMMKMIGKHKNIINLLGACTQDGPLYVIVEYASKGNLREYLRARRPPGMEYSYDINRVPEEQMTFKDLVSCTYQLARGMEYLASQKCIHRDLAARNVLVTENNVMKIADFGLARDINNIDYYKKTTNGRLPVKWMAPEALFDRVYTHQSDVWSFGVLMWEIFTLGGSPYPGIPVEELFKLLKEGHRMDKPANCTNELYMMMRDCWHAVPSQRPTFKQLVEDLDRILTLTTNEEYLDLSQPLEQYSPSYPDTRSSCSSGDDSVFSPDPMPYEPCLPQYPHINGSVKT

Target: Pleckstrin homology-like domain family A member 1 with HA tag (PHLDA1-HA) (UniProt Q8WV24)
Test: co-IP; HEK293T cells co-transfected with FGFR2-C383R and PHLDA1-HA, harvested 48 h after transfection, NP40 lysis buffer with phosphatase inhibitors; extracts incubated with anti-HA agarose beads overnight at 4 °C; Western blot of the precipitates

binding: binds
Substance: constitutively active FGFR2 mutant (C383R) (from UniProt P21802-3 22-822) (receptor)
